Results are given in words; binding and its absence hold for the method and conditions named. Binding seen in cells or lysates may run through a third protein. Binding calls can cover weak binding; strength is not graded here.
target: T1, FBXL21 (UniProt Q9UKT6); experiment: co-IP
T1 sequence: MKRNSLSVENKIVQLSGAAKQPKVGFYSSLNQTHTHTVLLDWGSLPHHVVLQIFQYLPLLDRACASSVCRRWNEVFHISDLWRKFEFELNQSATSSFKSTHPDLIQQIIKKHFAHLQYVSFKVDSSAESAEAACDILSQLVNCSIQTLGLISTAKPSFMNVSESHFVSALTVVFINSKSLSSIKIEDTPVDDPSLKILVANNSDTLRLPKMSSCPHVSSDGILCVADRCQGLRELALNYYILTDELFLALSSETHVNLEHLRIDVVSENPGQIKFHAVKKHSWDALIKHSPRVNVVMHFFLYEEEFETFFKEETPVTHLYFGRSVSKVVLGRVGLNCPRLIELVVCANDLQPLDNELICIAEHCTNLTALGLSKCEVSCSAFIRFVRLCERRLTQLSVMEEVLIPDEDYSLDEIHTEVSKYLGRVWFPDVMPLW

| Substance | binding |
| --- | --- |
| human CRY2 D347H | binds |
| human CRY2 D467N | binds |
| human CRY2 R460C | binds |
| human CRY2 S436R | binds |
| human CRY2 S532L | binds |
| human CRY2 wildtype | binds |
